PubChem BioAssay AID1224830 | NIAID, 2016
Here is an unselected part of about 18,000 reagents tested. About 2,900 of them (16%) were called active. 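Calls are made per well; low scores hint the gene aids the LPS response, high scores that it dampens it.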 Repeated entries: four replicate wells of each siRNA pool.

- Screen: 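Genes whose knock-down alters the TNF-alpha reporter response to LPS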 (primary screen)
- System: human THP-1 monocytic leukaemia cells, TNF dual-luciferase reporter clone, PMA-differentiated to macrophage-like cells
- Reagent: siRNA pool against human genes, 50 nM
- Time to read-out: LPS for 4 h, given about 3 days after siRNA transfection
- Conditions: bacterial LPS (TLR4 ligand), 10 ng/ml
- Measurement: 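TNF firefly reporter luminescence divided by renilla, normalised to the plate median, then turned into a robust z-score for each replicate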
- Direction: TNF reporter robust z-score: higher = stronger TNF reporter response to LPS
- Rule for the call: 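a well is active when its z-score exceeds 2.8 or falls below -1.5; control wells carry no call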

no.	gene	TNF reporter robust z-score	outcome
1	GLB1L	-0.12	inactive
2	GLB1L	0.19	inactive
3	GLB1L	1.57	inactive
4	GLB1L	0.24	inactive
5	NDRG1	0.48	inactive
6	NDRG1	0.93	inactive
7	NDRG1	0.41	inactive
8	NDRG1	0.69	inactive
9	ZNF600	0.01	inactive
10	ZNF600	1.36	inactive
11	ZNF600	-0.63	inactive
12	ZNF600	165	active
13	PLEKHH1	-0.12	inactive
14	PLEKHH1	1.18	inactive
15	PLEKHH1	0.65	inactive
16	PLEKHH1	1.16	inactive
17	PSME3	-0.25	inactive
18	PSME3	-0.59	inactive
19	PSME3	-0.64	inactive
20	PSME3	-0.53	inactive
21	FCGR2A	-0.22	inactive
22	FCGR2A	2.16	inactive
23	FCGR2A	0.91	inactive
24	FCGR2A	0.55	inactive
25	SLITRK2	-0.06	inactive
26	SLITRK2	1.33	inactive
27	SLITRK2	0.49	inactive
28	SLITRK2	0.78	inactive
29	NHLRC1	-0.03	inactive
30	NHLRC1	3.75	active
31	NHLRC1	-0.21	inactive
32	NHLRC1	0.69	inactive
33	HAT1	-1.27	inactive
34	HAT1	-1.14	inactive
35	HAT1	-0.82	inactive
36	HAT1	-0.02	inactive
37	ATP10D	2.31	inactive
38	ATP10D	1.65	inactive
39	ATP10D	0.53	inactive
40	ATP10D	1.82	inactive
41	MUC7	0.78	inactive
42	MUC7	1.36	inactive
43	MUC7	-0.36	inactive
44	MUC7	3.08	active
45	TMEM38A	0	inactive
46	TMEM38A	-0.13	inactive
47	TMEM38A	0.06	inactive
48	TMEM38A	0.97	inactive
49	CHCHD2	-1.02	inactive
50	CHCHD2	-0.14	inactive
51	CHCHD2	-0.52	inactive
52	CHCHD2	-0.07	inactive
53	CRHR1	0.67	inactive
54	CRHR1	-0.11	inactive
55	CRHR1	0.01	inactive
56	CRHR1	1.61	inactive
57	MED12L	1.03	inactive
58	MED12L	0.33	inactive
59	MED12L	0.8	inactive
60	MED12L	1.86	inactive

7 successive reagents already listed, quoted:
no.	gene	TNF reporter robust z-score	outcome
25	SLITRK2	-0.06	inactive
26	SLITRK2	1.33	inactive
27	SLITRK2	0.49	inactive
28	SLITRK2	0.78	inactive
29	NHLRC1	-0.03	inactive
30	NHLRC1	3.75	active
31	NHLRC1	-0.21	inactive

Additional entries follow:
no.	gene	TNF reporter robust z-score	outcome
61	TP63	0.54	inactive
62	TP63	0.94	inactive
63	TP63	-0.13	inactive
64	TP63	0.33	inactive
65	NFU1	2.81	active
66	NFU1	2.26	inactive
67	NFU1	1.77	inactive
68	NFU1	2.59	inactive
69	TIGAR	0.16	inactive
70	TIGAR	-0.53	inactive
71	TIGAR	-0.55	inactive
72	TIGAR	0.49	inactive
73	BCL3	-1.8	active
74	BCL3	-1.02	inactive
75	BCL3	-1.28	inactive
76	BCL3	-0.77	inactive
77	LIPI	-0.93	inactive
78	LIPI	-0.92	inactive
79	LIPI	-1.02	inactive
80	LIPI	-0.68	inactive
81	SRSF8	-0.8	inactive
82	SRSF8	-0.54	inactive
83	SRSF8	-0.79	inactive
84	SRSF8	-0.28	inactive
85	MED17	-0.17	inactive
86	MED17	-0.08	inactive
87	MED17	-0.39	inactive
88	MED17	-1.13	inactive
89	GJB6	0.57	inactive
90	GJB6	0.58	inactive
91	GJB6	-0.12	inactive
92	GJB6	1.92	inactive
93	SCRIB	0.81	inactive
94	SCRIB	1.56	inactive
95	SCRIB	0.3	inactive
96	SCRIB	0.43	inactive
97	SERPINB6	-0.32	inactive
98	SERPINB6	0	inactive
99	SERPINB6	-0.4	inactive
100	SERPINB6	0.44	inactive
101	ORMDL3	0.24	inactive
102	ORMDL3	-0.89	inactive
103	ORMDL3	-0.59	inactive
104	ORMDL3	-0.17	inactive
105	ZNF20	-0.34	inactive
106	ZNF20	-0.98	inactive
107	ZNF20	-2.03	active
108	ZNF20	-1.14	inactive
109	MAFB	-2.1	active
110	MAFB	-1.62	active
111	MAFB	-1.77	active
112	MAFB	-1.7	active
